From patent US20190343962A1 (GENAGON THERAPEUTICS, published 2019)
No constants are given. Whether binding was seen depends on the method and setting. Some entries that bind do so weakly or less than the wild type.

Key:
[1] = target: T1, human CLPTM1 on human CD14+ cells and CD14+-derived macrophages (human) (UniProt O96005); assay: flow cytometry, surface staining of human M2 macrophages derived in vitro from CD14+ monocytes
T1 sequence: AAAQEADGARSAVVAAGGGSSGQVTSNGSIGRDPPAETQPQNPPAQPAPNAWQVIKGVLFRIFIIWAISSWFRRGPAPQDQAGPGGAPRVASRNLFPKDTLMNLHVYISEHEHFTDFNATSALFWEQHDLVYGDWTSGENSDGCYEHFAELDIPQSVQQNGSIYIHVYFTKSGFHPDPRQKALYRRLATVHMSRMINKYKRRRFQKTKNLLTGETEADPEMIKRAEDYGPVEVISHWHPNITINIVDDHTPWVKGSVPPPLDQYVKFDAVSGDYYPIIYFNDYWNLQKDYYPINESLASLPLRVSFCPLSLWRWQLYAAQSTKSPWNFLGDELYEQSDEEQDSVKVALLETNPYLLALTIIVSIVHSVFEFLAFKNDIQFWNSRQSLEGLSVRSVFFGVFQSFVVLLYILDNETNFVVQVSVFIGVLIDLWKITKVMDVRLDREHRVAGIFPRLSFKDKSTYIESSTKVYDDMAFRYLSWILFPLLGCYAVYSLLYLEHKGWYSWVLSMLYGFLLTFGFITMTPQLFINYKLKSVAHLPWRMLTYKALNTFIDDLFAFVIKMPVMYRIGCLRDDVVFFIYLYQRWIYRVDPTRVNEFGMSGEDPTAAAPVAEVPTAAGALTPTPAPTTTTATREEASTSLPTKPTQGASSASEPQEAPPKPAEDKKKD

[2] = target: T2, native CLPTM1 in membrane-permeabilised O-876 cells (Homo sapiens (Human)) (UniProt O96005); assay: flow cytometry on membrane-permeabilised O-876 cells, a-mouse IgG-PE secondary, intensity normalised to the signal at 10 ug/ml
T2 sequence: T1 sequence

[3] = target: T2, native CLPTM1 in membrane-permeabilised O-876 cells (Homo sapiens (Human)); assay: flow cytometry on permeabilised O-876 cells (described in Example 13)
[4] = target: T1, human CLPTM1 on human CD14+ cells and CD14+-derived macrophages (human); assay: flow cytometry on M2 macrophages derived from a human donor, against isotype control staining
[5] = target: T2, native CLPTM1 in membrane-permeabilised O-876 cells (Homo sapiens (Human)); assay: flow cytometry on permeabilised O-876 cells

Measured: binding

B1: anti-CLPTM1 antibody 59D04 (format in the assay not stated) (antibody, V domains shown)
VH: EVQLVESGGGVVQPGRSLRLSCAASGFTFSTYAMHWVRQAPGKGLEWVAVISYDGTNKYYADSVKGRFTIFRDNSKNTLYLQMNSLRAEDTAVYYCGSGSYWGQGTLVTVSS
VL: QPVLTQPASVSGSPGQSITISCTGTSSDVGGYNYVSWYQQHPGKAPKLMIYEVTNRPSGVSDRFSGSKSGNTASLTISGLQAEDEADYYCSSYKSSNTVVFGGGTKVTVL
notes: Fully human antibody derived by phage display
not listed: [5]
binds: all other assays above

B2: anti-CLPTM1 mouse monoclonal antibody 7G12 (antibody, IgG1, V domains shown)
VH: QVQLQQSGTELVRPGTSVKVSCKASGYAFTNYLIEWVKQRPGQGLEWIGVINPGSGGTRYNEKFKGKATLTADKSSTTAHMQLSSLTSDDSAVYCARWGGNYSGYAMDYWGQGTSVTVSS
VL: QIVLTQSPVIMSASPGEKVTITCSASSSVSYMHWFQQKPGTSPKLWIYSTSNLASGVPARFSGSGSGTSYSLTISRMEAEDAATYYCQQRSSYPPTFGAGTKL
notes: Mouse monoclonal, IgG1 heavy chain, kappa light chain; The printed VL ends in 'TKL.' and may be incomplete; also called CLPTM1 clone 7G12 (IgG1)
binds: [2] | [5]
